Test results taken from PubChem BioAssay (EPA / NIEHS).
The inconclusive results got no clear call from the source; some entries with a clear call stand among them for comparison. Where the call is inconclusive, the potency comes from a doubtful curve fit. Active and inactive are the calls of the source. Rule for the calls: active = hit-call score of the fitted dose curve at least 0.9, where 1 is the maximum; inconclusive = response in the unintended direction; inactive = score below 0.9.

Assay: TOX21_p53_BLA_p3_viability: Viability Assessment in the Tox21 HCT-116 p53 Agonism Beta-lactamase Assay, Phase 3 (AID 2283593);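 note: cells exposed to compound for 16 h before reading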
Procedure, shortened: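 Cellular ATP was quantified by CellTiter-Glo luminescence, read after 30 min at room temperature. Beforehand, HCT116 cells (4000/well) received compound 5 h post-seeding, 217-fold diluted from DMSO, then incubated 16 h at 37C.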

Compound	AC50	outcome
O=C(O)CNCC(=O)O	inconclusive: 0.00323 µM	–
CNc1c2c(nn1C)CCCC2	inconclusive: 23 µM	–
CN(C)CCCSc1ccccc1NC(=O)/C=C/c1ccccc1	inconclusive: 23 µM	–
O=C(O)[C@H]1/C(=C/CO)O[C@@H]2CC(=O)N21	inconclusive: 23 µM	–
N=C(N)c1ccc(C=Cc2ccc(C(=N)N)cc2O)cc1	inconclusive: 23 µM	–
Cc1ccc(S(=O)(=O)NC(=O)NC2CCCC2)cc1	–	inactive
CCCC(=O)OC(=O)CCC	inconclusive: 0.516 µM	–
O=[N+]([O-])c1ccccc1CCO	inconclusive: 46.5 µM	–
Nc1ccncc1N	–	inactive
O=C(O)CCCCCCC(=O)O	inconclusive: 83 µM	–
N#Cc1ccc2c(c1)N(CCCN1CCC(O)CC1)c1ccccc1S2	inconclusive: 6.2 µM	–
CC1C(=O)CC2C3(C)CCC2(C(C)C(=O)O)C(=O)C13 (configuration not stated)	–	inactive
Cc1nc2ccccc2s1	inconclusive: 46.3 µM	–
CCCCN1C=CN(C)C1	inconclusive: 12.1 µM	–
O=C1c2ccccc2-c2ccccc21	inconclusive: 0.452 µM	–
N[C@@H](CCC(=O)Nc1ccc([N+](=O)[O-])cc1)C(=O)O	inconclusive: 46.1 µM	–

Compound	AC50	outcome
CN1CCN(C2=Nc3cc(F)ccc3Cc3ccccc32)CC1	inconclusive: 0.358 µM	–
COc1ccc(C(=O)c2ccc(C)cc2)c(O)c1	–	inactive
CC(=O)OCC(=O)[C@@]1(OC(C)=O)[C@@H](C)C[C@H]2[C@@H]3C[C@H](F)C4=CC(=O)C=C[C@]4(C)[C@@]3(F)[C@@H](O)C[C@@]21C	–	inactive
O=C(O)O	–	inactive
C1CSCCS1	inconclusive: 45.8 µM	–
COC(=O)CCC[N+](C)(C)C	–	inactive
O=Cc1cc2ccccc2o1	–	inactive
FC(F)(F)c1cccc(Cl)c1	inconclusive: 45.3 µM	–
O=C(CCN1CCN(CCO)CC1)N1c2ccccc2Sc2ccc(C(F)(F)F)cc21	inconclusive: 23 µM	–
Nc1ccccc1S(=O)(=O)c1ccccc1	–	inactive
CNc1cc(OC)c(C(=O)N[C@H]2CCN(Cc3ccccc3)[C@H]2C)cc1Cl	–	inactive
O=C1OC(=O)c2ccccc21	inconclusive: 45.9 µM	–
CNC(=O)NC	inconclusive: 46.8 µM	–
O=C(O)C(O)[C@H](O)[C@@H](O)[C@H](O)[C@H](O)CO (some centres not stated)	inconclusive: 46.5 µM	–
CN1C[C@@H]2C[C@H]1CN2c1cc2c(cc1F)c(=O)c(C(=O)O)cn2C1CC1	–	inactive
Cc1ccc(=O)n(-c2ccccc2)c1	inconclusive: 23 µM	–
